Laboratory results published in article doi:10.1101/248914.
Results are given in words; binding and its absence hold for the method and conditions named. In cells and extracts the contact can be indirect. Some results given as binding are weak or reduced against the parent protein; the word gives no strength.

Sequences of proteins named here, by UniProt entry; tags and fusion partners are left off.
UniProt O60234, whole entry: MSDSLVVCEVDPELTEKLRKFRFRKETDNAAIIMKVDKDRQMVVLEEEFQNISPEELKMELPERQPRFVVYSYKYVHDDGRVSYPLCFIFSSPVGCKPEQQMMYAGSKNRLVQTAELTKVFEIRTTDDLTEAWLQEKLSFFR
UniProt O00401, whole entry: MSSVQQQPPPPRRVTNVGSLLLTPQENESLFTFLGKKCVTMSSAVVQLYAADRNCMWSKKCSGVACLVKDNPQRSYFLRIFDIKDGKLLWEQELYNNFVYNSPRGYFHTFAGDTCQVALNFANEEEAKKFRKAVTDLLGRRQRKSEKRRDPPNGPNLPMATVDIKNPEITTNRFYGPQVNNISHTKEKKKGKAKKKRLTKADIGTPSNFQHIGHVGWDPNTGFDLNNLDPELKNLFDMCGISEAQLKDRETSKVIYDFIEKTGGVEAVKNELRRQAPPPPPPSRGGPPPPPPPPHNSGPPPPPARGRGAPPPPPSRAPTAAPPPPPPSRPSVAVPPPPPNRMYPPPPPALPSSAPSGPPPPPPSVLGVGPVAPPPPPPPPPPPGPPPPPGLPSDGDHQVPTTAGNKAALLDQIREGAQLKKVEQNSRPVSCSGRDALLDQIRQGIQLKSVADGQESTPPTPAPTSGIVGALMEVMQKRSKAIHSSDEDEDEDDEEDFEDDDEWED

Target: Glia maturation factor-γ (GMFγ) (human (endogenous in HASMC)) (UniProt O60234)
Test: co-IP

binding: binds
Substance: Neural Wiskott-Aldrich syndrome protein phosphorylated at tyrosine 256, N-WASP (pY256) (from UniProt O00401 1-505)
